Data: publication PMC7048209
These are yes or no findings as the source states them, for the method shown. In cells and extracts the contact can be indirect. Some binding calls cover weakened binding; strength is not graded here.

Sequences of proteins named here, by UniProt entry; tags and fusion partners are left off.
UniProt P42227: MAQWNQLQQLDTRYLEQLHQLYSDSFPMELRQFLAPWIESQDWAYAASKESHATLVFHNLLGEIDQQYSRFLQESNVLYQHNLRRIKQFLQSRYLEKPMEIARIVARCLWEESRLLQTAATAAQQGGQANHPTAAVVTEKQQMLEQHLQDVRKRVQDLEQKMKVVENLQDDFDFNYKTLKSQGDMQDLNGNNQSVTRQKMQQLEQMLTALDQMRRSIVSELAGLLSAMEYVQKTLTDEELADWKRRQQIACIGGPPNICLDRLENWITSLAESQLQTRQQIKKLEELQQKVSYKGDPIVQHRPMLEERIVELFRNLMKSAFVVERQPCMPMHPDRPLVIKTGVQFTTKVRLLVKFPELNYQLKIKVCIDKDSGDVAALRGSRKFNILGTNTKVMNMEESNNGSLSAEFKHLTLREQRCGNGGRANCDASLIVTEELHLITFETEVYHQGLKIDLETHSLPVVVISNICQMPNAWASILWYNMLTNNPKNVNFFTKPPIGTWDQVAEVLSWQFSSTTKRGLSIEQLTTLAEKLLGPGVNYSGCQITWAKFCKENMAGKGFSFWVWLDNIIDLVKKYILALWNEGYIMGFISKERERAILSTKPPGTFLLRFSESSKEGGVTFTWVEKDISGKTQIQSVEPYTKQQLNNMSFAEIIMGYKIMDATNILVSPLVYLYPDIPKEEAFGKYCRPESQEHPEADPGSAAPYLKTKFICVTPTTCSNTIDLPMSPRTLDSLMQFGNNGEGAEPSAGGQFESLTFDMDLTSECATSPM
UniProt Q08775: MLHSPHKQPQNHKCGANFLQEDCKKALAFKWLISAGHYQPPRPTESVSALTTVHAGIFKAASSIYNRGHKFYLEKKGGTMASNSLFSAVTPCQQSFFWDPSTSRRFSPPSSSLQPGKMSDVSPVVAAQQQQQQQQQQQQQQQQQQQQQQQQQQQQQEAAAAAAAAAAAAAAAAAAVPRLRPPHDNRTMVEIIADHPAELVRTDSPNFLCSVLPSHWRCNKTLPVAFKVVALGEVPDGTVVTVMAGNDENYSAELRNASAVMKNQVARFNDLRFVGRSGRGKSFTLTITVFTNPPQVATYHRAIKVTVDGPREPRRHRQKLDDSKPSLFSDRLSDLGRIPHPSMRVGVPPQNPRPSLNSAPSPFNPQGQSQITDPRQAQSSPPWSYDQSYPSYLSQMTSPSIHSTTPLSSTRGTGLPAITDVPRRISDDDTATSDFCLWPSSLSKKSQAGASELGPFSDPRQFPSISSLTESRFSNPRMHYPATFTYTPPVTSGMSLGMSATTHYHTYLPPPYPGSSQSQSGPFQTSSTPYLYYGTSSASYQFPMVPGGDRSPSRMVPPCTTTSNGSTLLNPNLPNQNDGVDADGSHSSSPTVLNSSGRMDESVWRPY

Target: Flag-STAT3 (UniProt P42227)
Assay: co-IP; Flag-STAT3 and HA-Runx2 plasmids co-transfected into 293T cells; after 48 hours whole cell lysates immunoprecipitated by Flag antibody at 4°C overnight; Western blotting with anti-HA and anti-Flag

binding: binds
Substance: HA-Runx2 (from UniProt Q08775 1-607)
